The record followed here is publication PMC4361615.

Sequences of proteins named here, by UniProt entry; tags and fusion partners are left off.
UniProt O88522: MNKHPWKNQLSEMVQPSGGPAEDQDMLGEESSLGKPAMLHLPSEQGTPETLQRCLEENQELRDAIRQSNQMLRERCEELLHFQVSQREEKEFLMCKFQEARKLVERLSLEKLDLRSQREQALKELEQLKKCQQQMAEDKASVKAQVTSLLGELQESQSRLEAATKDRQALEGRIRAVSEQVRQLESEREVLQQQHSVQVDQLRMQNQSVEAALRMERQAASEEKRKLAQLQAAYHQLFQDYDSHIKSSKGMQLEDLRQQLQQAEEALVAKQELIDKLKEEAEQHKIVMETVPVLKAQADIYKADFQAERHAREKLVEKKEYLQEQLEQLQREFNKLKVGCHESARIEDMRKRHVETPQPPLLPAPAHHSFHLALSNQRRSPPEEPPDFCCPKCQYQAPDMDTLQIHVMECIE
UniProt Q96CV9: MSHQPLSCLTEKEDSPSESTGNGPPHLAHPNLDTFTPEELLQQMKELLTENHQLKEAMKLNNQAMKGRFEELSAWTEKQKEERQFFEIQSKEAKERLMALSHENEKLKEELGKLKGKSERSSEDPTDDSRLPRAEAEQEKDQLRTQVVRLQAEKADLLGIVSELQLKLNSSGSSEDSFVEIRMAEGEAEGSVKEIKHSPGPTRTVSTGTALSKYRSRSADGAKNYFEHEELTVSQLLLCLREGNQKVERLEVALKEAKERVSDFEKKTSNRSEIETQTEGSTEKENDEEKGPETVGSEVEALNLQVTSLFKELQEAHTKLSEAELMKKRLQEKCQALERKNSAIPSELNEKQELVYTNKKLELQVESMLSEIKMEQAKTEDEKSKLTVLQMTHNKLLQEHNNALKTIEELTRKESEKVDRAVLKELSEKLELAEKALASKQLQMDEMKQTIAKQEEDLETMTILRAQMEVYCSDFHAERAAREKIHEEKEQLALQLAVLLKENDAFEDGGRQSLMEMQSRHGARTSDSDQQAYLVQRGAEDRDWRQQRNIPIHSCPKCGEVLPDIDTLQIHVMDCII
UniProt P61088: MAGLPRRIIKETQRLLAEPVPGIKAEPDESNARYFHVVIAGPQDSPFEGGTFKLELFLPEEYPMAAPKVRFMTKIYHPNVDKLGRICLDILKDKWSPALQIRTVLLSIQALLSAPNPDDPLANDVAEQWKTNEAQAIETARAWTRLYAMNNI

Test [1] concerns the target T1, Cell adhesion molecule 1 (CADM1), endogenous in human T-cell lines (human (endogenous in Jurkat, C8166, MT-2, MT-4)) (UniProt Q9BY67).
T1 sequence: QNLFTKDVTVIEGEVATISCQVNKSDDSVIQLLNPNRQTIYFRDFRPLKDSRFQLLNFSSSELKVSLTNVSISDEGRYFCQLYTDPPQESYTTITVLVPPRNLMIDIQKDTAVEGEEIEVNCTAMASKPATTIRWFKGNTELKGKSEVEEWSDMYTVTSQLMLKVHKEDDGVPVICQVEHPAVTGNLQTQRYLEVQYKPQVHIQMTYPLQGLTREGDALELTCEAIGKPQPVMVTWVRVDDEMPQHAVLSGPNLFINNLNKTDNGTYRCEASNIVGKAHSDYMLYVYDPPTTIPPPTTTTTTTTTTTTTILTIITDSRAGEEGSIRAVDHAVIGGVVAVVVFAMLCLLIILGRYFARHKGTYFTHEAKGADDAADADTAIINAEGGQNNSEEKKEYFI
The test can be described thus: co-IP; lipid raft fractions (OptiPrep density gradient, 1% Triton X-100 lysate; fractions 4, 5 and 6) of MT-2 and MT-4 cells expressing control shRNA, and of media-treated MT-2 cells (against 10 mM MβCD, 45 min, under which the interactions were 'impaired'); immunoprecipitated with anti-CADM1, immunoblot anti-TAX1BP1, anti-Tax, anti-NEMO, anti-Ubc13, anti-NRP. On the technique in general: A western blot detects proteins with antibodies after separation by electrophoresis.

Test [2] has as its target T1, Cell adhesion molecule 1 (CADM1), endogenous in human T-cell lines (human (endogenous in Jurkat, C8166, MT-2, MT-4)). The test can be described thus: co-IP; lysates of C8166, MT-2 and MT-4 cells immunoprecipitated with anti-CADM1 (control anti-IgG), immunoblot anti-Tax.
Test [3] concerns the target Purified recombinant Tax (from the pTaxH6 expression plasmid) (HTLV-1) (UniProt P03409). The test can be described thus: co-IP; cell-free system: recombinant Tax (250 ng) incubated with cytosolic extract (S100, 10 mg/ml) of Jurkat, JM4.5.2 (NEMO-deficient), Cadm1+/+ or Cadm1-/- MEFs with ATP, 30°C, 1 hour; immunoprecipitated with anti-Tax, immunoblot anti-NEMO, anti-IKKα, anti-IKKβ; only the target purified.

For test [4], the target named is HTLV-1 Tax, expressed by lentiviral transduction in Jurkat T-cells (HTLV-1) (UniProt P03409). The test can be described thus: co-IP.

These are yes or no findings as the source states them, for the method shown. Binding seen in cells or lysates may run through a third protein. Some results given as binding are weak or reduced against the parent protein; the word gives no strength.

As for “HTLV-1 Tax in HTLV-1-transformed T-cell lines C8166, MT-2 and MT-4 (from UniProt P03409 1-353)”, the binding entry in test [1] and in test [2] was “binds” in each case. With “NEMO (IKKγ), endogenous in human T-cell lines (from UniProt Q9Y6K9 1-419)”, the binding result in test [3] and in test [1] was “binds” in each case. For “NEMO, endogenous in MEFs (from UniProt O88522 1-412)”, in test [3], the binding entry is recorded as “binds”.

As to “NEMO-Related Protein (NRP), endogenous in HTLV-1-transformed human T-cell lines (from UniProt Q96CV9 1-577)”, in test [1], the binding result is listed as “binds”. On to “Ubiquitin-conjugating enzyme Ubc13, endogenous in HTLV-1-transformed human T-cell lines (from UniProt P61088 1-152)”, for which, in test [1], the binding result was “binds”.

B1: Cell adhesion molecule 1 (CADM1), endogenous in human T-cell lines (protein, UniProt Q9BY67 45-442)
chain: T1 sequence
Take B1: the binding entry in test [4] is “binds”.
